Some entries share one result that the patent states for a list of compounds.
How the values were obtained:
[1] = tested on: Spodoptera littoralis (Egyptian cotton leafworm); experiment: Spodoptera littoralis cotton leaf disc spray test; assay type: in vivo; conditions: application rate of 200 ppm; cotton leaf discs, L1 larvae; mortality, feeding behavior, growth regulation 3 days after treatment
[2] = tested on: Plutella xylostella (Diamond back moth); experiment: Plutella xylostella artificial diet test; assay type: in vivo; conditions: application rate of 200 ppm (concentration in well 18 ppm), L2 larvae, larval mortality and growth regulation after 6 days

Question: For `Cc1cc(C2=NOC(c3cc(Cl)cc(Cl)c3)(C(F)(F)F)C2Br)ccc1C(=O)NCc1nc2ccccc2[nH]1` (stereo not drawn) [Compound A5], which “control of Spodoptera littoralis” value [1] is on record?
Answer: The value was “at least 80%”.

Question: And the “control of Plutella xylostella” value [2]?
Answer: The value was “at least 80%”.

Question: For `CSCC(C)(C)NC(=O)c1ccc(C2=NOC(c3cc(Cl)cc(Cl)c3)(C(F)(F)F)C2Br)cc1C` (stereo not drawn) [Compound A20], which “control of Spodoptera littoralis” value [1] is on record?
Answer: Its value is “at least 80%”.

From patent publication US8859592B2, “Insecticidal compounds” (Syngenta Crop Protection LLC, priority 2009, dated 2014)
